Reference: PubChem BioAssay AID540276 (National Center for Advancing Translational Sciences (NCATS), 2011)
Values joined by “and” are separate entries in the source; they are usually repeats but may differ in a detail not shown here. Equal entries are not always repeated. Screen size: about 300,000 compounds; about 5,400 (1.8%) were called active. The inconclusive results got no clear call from the source; some entries with a clear call stand among them for comparison. Calls follow the shape of the full dose curve; tested in HEK293 cells. Potencies of inconclusive entries are doubtful fits and often do not repeat. Where a structure was tested more than once in an assay, its records may differ in their call.

Experiment: qHTS for inhibitors of binding or entry into cells for Marburg Virus
Settings: Marburg virus pseudotyped entry inhibition, cell reporter; series mostly up to 37.8 µM
Potency is read from the fitted curve at half-maximal effect.

Row | Compound | Potency
1 | Cc1cc(C(=O)NCc2cc(C)n(C)n2)sc1-c1ccccc1 | inconclusive: 32.6 µM [inhibitor, single point]
2 | COc1ccc(S(=O)(=O)N2CCN(Cc3c[nH]c4ccccc34)CC2)cc1 | inactive
3 | COc1ccc(/C=N/NC(N)=S)cc1OC(=O)c1ccccc1 | inconclusive: 13 µM [inhibitor, partial curve, poor fit]
4 | COc1ccc(/C=N/NC(=O)c2cccnc2)cc1CSc1ccccn1 | inconclusive: 1.12 µM [inhibitor, full curve, poor fit]
5 | COc1ccc(C(=O)N2N=C(c3cccc(OC)c3)CC2(O)C(F)(F)F)cc1 (stereo not given) | inconclusive: 15.8 µM [inhibitor, single point]
6 | COc1cc(C(C)=O)ccc1OCCN1CCC(Cc2ccccc2)CC1 | inconclusive: 22.4 µM [inhibitor, single point]
7 | O=C(Cn1cc(C(=O)c2ccco2)c2ccccc21)Nc1ccccc1F | inactive
8 | CC(C)CNC(=S)Nc1ccccc1F | inactive
9 | CCOc1ccc(N/C=C\C(=O)c2ccc3c(c2)OCO3)cc1 | inactive
10 | COc1ccc(-c2cc(-c3n[nH]c(=S)n3-c3ccccc3OC)[nH]n2)cc1 | inconclusive: 3.55 µM [activator, partial curve, poor fit]
11 | O=C(O)c1ccc(CNCc2ccc(Cl)cc2)s1 | inactive
12 | CCC1CN2CCc3cc(OC)c(OC)cc3C2CC1CC1NCCc2c1[nH]c1ccc(O)cc21 (stereo not given) | active: 0.224 µM
13 | Cc1nn(Cc2ccc(F)cc2)c(C)c1NC(=O)c1noc2c1CCCCC2 | inconclusive: 5.17 µM [inhibitor, partial curve, poor fit]
14 | O=C(NC(=S)Nc1ccccn1)c1cncc(Br)c1 | inactive
15 | S=C(NC1CCCCC1)N1CCOCCOCCN(C(=S)NC2CCCCC2)CCOCC1 | inactive
16 | O=C(O)c1cccc(-c2ccc(/C=N/NC(=O)C3COc4ccccc4O3)o2)c1 (stereo not given) | inactive
17 | CCOC(=O)c1cccc(NC(=O)c2cc3sccc3n2Cc2ccc(Cl)cc2)c1 | inactive
19 | O=C(CSc1ccc(-c2nc3ccccc3[nH]2)cn1)Nc1ccc(S(=O)(=O)NC2CC2)cc1 | inactive
20 | COc1ccccc1-c1cc(C(F)(F)F)nc(S(=O)(=O)CCCC(=O)N2CCOCC2)n1 | active: 11.2 µM
21 | CC(=O)Nc1c(-c2ccccc2)nc2cc(C)ccn12 | inconclusive: 1.26 µM [inhibitor, single point]
22 | COc1ccc(C(C(=O)NCC2CCCO2)N(C(=O)c2snc(C(N)=O)c2N)c2ccccc2C)cc1OC (stereo not given) | inconclusive: 0.562 µM [inhibitor, full curve, poor fit]
23 | Cc1[nH]c(=O)[nH]c(=O)c1NC(=O)c1ccc(OC(C)C)cc1 | inconclusive: 2.82 µM [activator, full curve, poor fit]
24 | COc1ccc(-c2coc3cc4oc(=O)cc(-c5ccccc5)c4cc23)cc1F | inconclusive: 0.0891 µM [inhibitor, full curve, poor fit]
25 | O=C(Nc1ccccc1F)NC1CCCc2ccccc21 (stereo not given) | inactive

Row | Compound | Potency
26 | Cc1ccnc(NC(=O)Nc2cccc(F)c2)n1 | inconclusive: 18.3 µM [inhibitor, single point]
27 | COc1ccc(N2C(=O)CC(N3CCN(c4nc5ccccc5s4)CC3)C2=O)cc1 (stereo not given) | inactive
28 | C=CCC(O)(CCN1CCCCC1)c1ccccc1 (stereo not given) | inconclusive: 0.562 µM [activator, full curve, poor fit]
29 | O=C(NCCc1ccc(Cl)cc1)Nc1cccc(Cl)c1 | inconclusive: 25.1 µM [inhibitor, single point]
30 | NC(=O)C1CCN(C(=O)CNC(=O)c2ccccc2)CC1 | inconclusive: 3.55 µM [activator, single point]
31 | O=C(NCc1cccs1)c1noc2c1CCCCC2 | inactive
32 | COc1cccc(CN(C(=O)Cn2nnc(-c3ccccc3F)n2)C(C(=O)NC(C)(C)C)c2ccncc2)c1 (stereo not given) | inconclusive: 35.5 µM [inhibitor, single point]
33 | COCCn1c(=O)[nH]c2cc(C(=O)NCc3ccccc3Cl)ccc2c1=O | inconclusive: 1.12 µM [inhibitor, full curve, poor fit]
34 | CCN(CC)C(=O)C[n+]1cccc(/C=N/O)c1 | inconclusive: 12.6 µM [activator, single point]
35 | CC(=O)N1C(C)c2ccccc2C(C)(C)CC12CCCCC2 (stereo not given) | inconclusive: 0.112 µM [activator, full curve, poor fit]
36 | Cc1cc(C)c(C)c(S(=O)(=O)NCc2ccco2)c1C | inactive
37 | Cc1ccccc1C(=O)NC(=S)Nc1ccc(N2CCN(C(=O)c3ccccc3)CC2)cc1 | inconclusive: 15.8 µM [inhibitor, single point]
38 | CC1CCCC(C)N1S(=O)(=O)c1ccc(NC(=O)CCN2C(=O)C3CC=CCC3C2=O)cc1 (stereo not given) | inconclusive: 20 µM [activator, single point]
39 | COc1ccc(C(=O)Nc2ccc([N+](=O)[O-])cn2)cc1OC | inactive
40 | COc1ccccc1CNS(=O)(=O)c1c(C)nc2scc(C)n2c1=O | inactive
41 | CC(=O)O/N=C/c1c(C)c(C=O)n2ccccc12 | inconclusive: 6.31 µM [activator, single point]
42 | O=c1[nH]c2ccccc2cc1CN(Cc1ccco1)S(=O)(=O)c1ccccc1 | inconclusive: 35.5 µM [inhibitor, single point]
43 | Cc1ccc(-c2cc(C(=O)N3CCCc4ccccc43)no2)cc1 | inactive
44 | COc1ccc(-c2cc(C(=O)N3CCCC(C(F)(F)F)C3)c3ccccc3n2)cc1OC (stereo not given) | inconclusive: 25.1 µM [inhibitor, single point]
45 | CC(OC(=O)C1CC(=O)N(Cc2ccco2)C1)C(=O)Nc1cccc(C#N)c1 (stereo not given) | inactive
46 | Cc1ccccc1CN1CCN(C(=O)c2cc(-c3ccncc3)nc3ccccc23)CC1 | inconclusive: 14.1 µM [inhibitor, single point]
47 | C[C@@H](CN1CCN(C)CC1)OC(=O)c1ccc(Cl)cc1Cl | inactive
48 | OCCNCc1c(OCc2ccc(Cl)cc2)ccc2ccccc12 | active: 5.62 µM
49 | Cc1ccc2nc(COC(=O)CNC(=O)c3ccccc3)cn2c1 | inactive
50 | Cc1ccc(C(=O)Nc2ccc3c(c2)OCCO3)c(C)c1 | active: 1.26 µM

Row | Compound | Potency
51 | O=C(Nc1ccc(F)cc1)c1ccccc1NC(=O)C1CC=CCC1C(=O)O (stereo not given) | inconclusive: 35.5 µM [activator, single point]
52 | O=C(Nc1nnc(-c2cccnc2)o1)c1ccccc1Cl | inactive
53 | CC(=O)c1cn(C2OC(CO)C3OC(C)(C)OC32)c(=O)n(C)c1=O (stereo not given) | inactive
54 | COc1cccc(-c2nnc3sc(C4CCCCC4)nn23)c1 | inactive
55 | CCCCCCCc1c(C#N)c(N)[nH]c(=S)c1C#N | inconclusive: 0.708 µM [activator, full curve, poor fit]
56 | Fc1ccccc1N1CCN(c2cnc3ccccc3n2)CC1 | inconclusive: 22.4 µM [inhibitor, single point]
57 | O=C(O)c1ccc(/C=C2/SC(=S)N(Cc3ccccc3)C2=O)cc1 | inconclusive: 12.6 µM [activator, single point]
58 | COc1ccc(N2CCN(c3oc(-c4ccc(OC)c(OC)c4)nc3C#N)CC2)cc1 | inactive
59 | Cc1ccc(NC(=O)CSc2nnc(COc3ccc(C#N)cc3)n2-c2ccccc2)cc1C | active: 7.3 µM
60 | O=C(Nc1ccccc1)O/N=C/c1ccccc1Cl | inactive
61 | Cc1cccc(N(C(=O)CNC(=O)c2ccco2)C(C(=O)NCC2CCCO2)c2ccccc2)c1 (stereo not given) | inconclusive: 6.31 µM [activator, single point]
62 | Cc1c(NCc2nc3ccccc3[nH]2)c(=O)n(-c2ccccc2)n1C | inactive
63 | CCCSc1nc2sc3c(c2c(=O)n1-c1ccc(OC)cc1)CCN(C)C3 | inconclusive: 10 µM [inhibitor, partial curve, poor fit]
64 | O=C(NCCO)c1ccc2[nH]c3c(c2c1)CCCC3 | inconclusive: 11.2 µM [activator, single point]
65 | O=C(O)c1cc2c(ccc3ccccc32)o1 | inconclusive: 20.6 µM [activator, single point]
66 | O=C1CN(S(=O)(=O)c2ccc(Cl)cc2C(F)(F)F)CCN1 | inactive
67 | CN(Cc1cnn(C)c1)Cc1nc(-c2ccc(Cl)cc2)no1 | inactive
68 | Cc1cc(C)n(-c2cc(N3CCN(C(=O)c4ccc(C(C)(C)C)cc4)CC3)ccc2[N+](=O)[O-])n1 | inconclusive: 35.5 µM [inhibitor, single point]
69 | COc1cc(-c2noc(-c3ccc(N4CCN(C)CC4)c([N+](=O)[O-])c3)n2)cc(OC)c1OC | inactive
70 | COc1ccc(/C=N/NC(=O)CCc2nc3ccccc3[nH]2)cc1 | inconclusive: 35.5 µM [activator, partial curve, poor fit]
71 | Cn1c(SCC(=O)N/N=C/c2ccc([N+](=O)[O-])s2)nnc1-c1ccc(Cl)cc1 | active: 11.6 µM
72 | Cc1ccc(C(=O)NCC(=O)OC2CCCCC2=O)cc1C (stereo not given) | inconclusive: 0.891 µM [activator, full curve, poor fit]
73 | Cc1cccc(NC(=S)N2CCN(c3cc(C)ccc3C)CC2)c1 | inconclusive: 0.282 µM [inhibitor, full curve, poor fit]
74 | COC(=O)c1ccc(NC(=O)c2ccc(C)cc2)o1 | inactive
75 | CCC(C)(C)NC(=O)Cc1ccc(C)cc1 | inactive

In a second layout: results already given
CCCSc1nc2sc3c(c2c(=O)n1-c1ccc(OC)cc1)CCN(C)C3
  Potency: inconclusive: 10 µM [inhibitor, partial curve, poor fit]
O=C(NCCO)c1ccc2[nH]c3c(c2c1)CCCC3
  Potency: inconclusive: 11.2 µM [activator, single point]
O=C(O)c1cc2c(ccc3ccccc32)o1
  Potency: inconclusive: 20.6 µM [activator, single point]
